Data: patent publication US20240358735A1, “THERAPEUTIC COMPOSITIONS AND RELATED METHODS” (BOYCE THOMPSON INSTITUTE FOR PLANT RESEARCH, INC., priority 2021, published 2024)

What follows are molecules tested on Cel-cest-1.2 mutants (assay: Comparative metabolomics (HPLC-HRMS) of Cel-cest-1.2 mutants versus wildtype C. elegans (N2)). Details: abundance of the metabolite in Cel-cest-1.2 mutants compared to C. elegans wildtype (N2).

SMILES | Cel-cest-1.2 fold over WT (N2), average of 4 repeats
Nc1ccccc1C(=O)OCC1OC(n2ccc3ccccc32)C(OC(=O)c2ccccc2)C(OP(=O)(O)O)C1O (centres unmarked) [iglu#68] | 0.001092
O=C(O[C@@H]1[C@@H](OP(=O)(O)O)[C@H](O)[C@@H](COC(=O)c2ccc[nH]2)O[C@H]1n1ccc2ccccc21)c1cccnc1 [iglu#39] | 0.0003144
C/C=C(\C)C(=O)OC[C@H]1O[C@@H](n2ccc3ccccc32)[C@H](OC(=O)c2cccnc2)[C@@H](OP(=O)(O)O)[C@@H]1O [iglu#30] | 0.0002837
Nc1ccccc1C(=O)OC[C@H]1O[C@@H](OC(=O)c2ccccc2N)[C@H](OC(=O)c2ccccc2N)[C@@H](OP(=O)(O)O)[C@@H]1O [angl#36] | 0.0003258
Nc1ccccc1C(=O)O[C@@H]1O[C@H](COC(=O)c2ccccc2)[C@@H](O)[C@H](OP(=O)(O)O)[C@H]1OC(=O)c1cccnc1 [angl#28] | 0.0009419
Nc1ccccc1C(=O)O[C@@H]1[C@@H](CP(=O)(O)O)[C@H](O)[C@@H](COC(=O)c2ccc(O)cc2)O[C@H]1n1ccc2ccccc21 [iglu#76] | 0.00023
CCCCCCCCCCCC(=O)O[C@H]1[C@H](OC(=O)c2ccccc2N)O[C@H](COC(=O)c2ccccc2N)[C@@H](O)[C@@H]1OP(=O)(O)O [angl#41] | 0.002887
Nc1ccccc1C(=O)O[C@@H]1[C@@H](OP(=O)(O)O)[C@H](O)[C@@H](CO)O[C@H]1n1ccc2ccccc21 [iglu#401, (2R,3R,4S,5R,6R)-5-hydroxy-6-(hydroxymethyl)-2-(1H-indol-1-yl)-4-(phosphonooxy)tetrahydro-2H-pyran-3-yl 2-aminobenzoate] | 0.0009932
CCC(O)C(=O)OC[C@H]1O[C@@H](n2ccc3ccccc32)[C@H](OC(=O)c2ccccc2N)[C@@H](OP(=O)(O)O)[C@@H]1O (some centres unmarked) [iglu#47] | 0.0007468
C[C@H](CCCCC(=O)OC[C@H]1O[C@@H](n2ccc3ccccc32)[C@H](OC(=O)c2ccccc2)[C@@H](OP(=O)(O)O)[C@@H]1O)O[C@@H]1O[C@@H](C)[C@H](O)C[C@H]1O [iglas#702] | 0.0003696
NCC(O)c1ccc(OC2OC(COC(=O)c3ccc[nH]3)C(O)C(OP(=O)(O)O)C2OC(=O)c2ccc[nH]2)cc1 (centres unmarked) [oglu#26] | 0.01264
CC(C)CC(=O)OC[C@H]1O[C@@H](n2ccc3ccccc32)[C@H](OC(=O)c2cccnc2)[C@@H](OP(=O)(O)O)[C@@H]1O [iglu#34] | 0.003863
NCC(O)c1ccc(O[C@@H]2O[C@H](COC(=O)c3ccc[nH]3)[C@@H](O)[C@H](OP(=O)(O)O)[C@H]2OC(=O)c2ccccc2)cc1 (some centres unmarked) [oglu#8] | 0.01745
O=C(OC[C@H]1O[C@@H](n2ccc3ccccc32)[C@H](OC(=O)c2ccc[nH]2)[C@@H](OP(=O)(O)O)[C@@H]1O)c1ccccc1 [iglu#38] | 0.0000986
Nc1ccccc1C(=O)O[C@@H]1O[C@H](COC(=O)c2cccnc2)[C@@H](O)[C@H](OP(=O)(O)O)[C@H]1OC(=O)c1cccnc1 [angl#30] | 0.001616
O=C(Cc1ccccc1)O[C@@H]1[C@@H](OP(=O)(O)O)[C@H](O)[C@@H](COC(=O)c2ccccc2)O[C@H]1n1ccc2ccccc21 [iglu#64] | 0.0004248
CC(C)CC(=O)OC[C@H]1O[C@@H](Oc2ccc(CCN)cc2)[C@H](OC(=O)c2ccccc2N)[C@@H](OP(=O)(O)O)[C@@H]1O [tyglu#52] | 0.009508
O=C(O[C@@H]1[C@@H](OP(=O)(O)O)[C@H](O)[C@@H](CO)O[C@H]1n1ccc2ccccc21)c1ccccc1 [iglu#121, (2R,3R,4S,5R,6R)-5-hydroxy-6-(hydroxymethyl)-2-(1H-indol-1-yl)-4-(phosphonooxy)tetrahydro-2H-pyran-3-yl benzoate] | 0.0006277
NCCc1ccc(O[C@@H]2O[C@H](COC(=O)c3cccnc3)[C@@H](O)[C@H](OP(=O)(O)O)[C@H]2OC(=O)c2ccccc2)cc1 [tyglu#28] | 0.0002055
Nc1ccccc1C(=O)O[C@@H]1O[C@H](CO)[C@@H](O)[C@H](OP(=O)(O)O)[C@H]1OC(=O)c1cccnc1 [angl#101] | 0.01275
C/C=C(\C)C(=O)OC[C@H]1O[C@@H](OC(=O)c2ccccc2)[C@H](O)[C@@H](OP(=O)(O)O)[C@@H]1O [bzglu#201] | 0.001807
NCCc1ccc(O[C@@H]2O[C@H](COC(=O)c3ccc[nH]3)[C@@H](O)[C@H](OP(=O)(O)O)[C@H]2OC(=O)c2cccnc2)cc1 [tyglu#30] | 0.003195
Nc1ccccc1C(=O)OC[C@H]1O[C@@H](CC(=O)c2ccc(O)cc2)[C@H](OC(=O)c2ccc(O)cc2)[C@@H](OP(=O)(O)O)[C@@H]1O [angl#48] | 0.01184
C[C@H](CCCC/C=C/C(=O)OC[C@H]1O[C@@H](n2ccc3ccccc32)[C@H](OC(=O)c2ccccc2)[C@@H](OP(=O)(O)O)[C@@H]1O)O[C@@H]1O[C@@H](C)[C@H](O)C[C@H]1O [iglas#301] | 0.0005506
O=C(OC[C@H]1O[C@@H](n2ccc3ccccc32)[C@H](OC(=O)c2ccccc2)[C@@H](OP(=O)(O)O)[C@@H]1O)c1cccnc1 [iglu#52] | 0.00007449

SMILES | Cel-cest-1.2 fold over WT (N2), average of 4 repeats
O=C(OC[C@H]1O[C@@H](n2ccc3ccccc32)[C@H](OC(=O)c2ccc[nH]2)[C@@H](OP(=O)(O)O)[C@@H]1O)c1ccccc1 [iglu#37] | 0.0001169
NCCc1ccc(O[C@@H]2O[C@H](COC(=O)c3ccccc3N)[C@@H](O)[C@H](OP(=O)(O)O)[C@H]2OC(=O)c2ccccc2)cc1 [tyglu#16] | 4.851E−05
O=C(/C=C/c1c[nH]cn1)OC[C@H]1O[C@@H](n2ccc3ccccc32)[C@H](OC(=O)c2ccccc2)[C@@H](OP(=O)(O)O)[C@@H]1O [iglu#70] | 0.003904
CC(C)CC(=O)O[C@H]1[C@H](Oc2ccc(CCN)cc2)O[C@H](COC(=O)c2ccccc2N)[C@@H](O)[C@@H]1OP(=O)(O)O [tyglu#14] | 0.0004346
CC(C)CC(=O)O[C@@H]1[C@@H](OP(=O)(O)O)[C@H](O)[C@@H](COC(=O)/C=C/c2c[nH]cn2)O[C@H]1n1ccc2ccccc21 [iglu#44] | 0.0006512
CC(C)CC(=O)OCC1OC(OC(=O)c2cccnc2)C(OC(=O)Cc2ccccc2)C(OP(=O)(O)O)C1O (centres unmarked) [nglu#10] | 0.002083
CCCC(=O)OC[C@H]1O[C@@H](OC(=O)c2ccccc2N)[C@H](OC(=O)Cc2ccccc2)[C@@H](OP(=O)(O)O)[C@@H]1O [angl#22] | 0.004657
Nc1ccccc1C(=O)O[C@@H]1O[C@H](COC(=O)c2cccnc2)[C@@H](O)[C@H](OP(=O)(O)O)[C@H]1OC(=O)c1ccccc1 [angl#27] | 0.0002314
CCC(=O)OC1C(OP(=O)(O)O)C(O)C(COC(=O)c2cccnc2)OC1n1ccc2ccccc21 (centres unmarked) [iglu#25] | 0.004462
NCC(O)c1ccc(C[C@@H]2O[C@H](COC(=O)c3ccccc3N)[C@@H](O)[C@H](OP(=O)(O)O)[C@H]2OC(=O)c2cccnc2)cc1 (some centres unmarked) [oglu#15] | 0.0007264
Nc1ccccc1C(=O)OCC1OC(n2ccc3ccccc32)C(OC(=O)c2ccccc2)C(CP(=O)(O)O)C1O (centres unmarked) [iglu#90] | 0.001939
O=C(Cc1ccccc1)O[C@@H]1[C@@H](OP(=O)(O)O)[C@H](O)[C@@H](CO)O[C@H]1n1ccc2ccccc21 [iglu#16] | 0.000533
C/C=C(\C)C(=O)OC1C(Oc2ccc(C(O)CN)cc2)OC(COC(=O)c2ccc[nH]2)C(O)C1OP(=O)(O)O (centres unmarked) [oglu#601] | 0.002277
NCCc1ccc(O[C@@H]2O[C@H](COC(=O)Cc3ccc(O)cc3)[C@@H](O)[C@H](OP(=O)(O)O)[C@H]2OC(=O)c2ccccc2N)cc1 [tyglu#37] | 0.01231
CC(C)CC(=O)OC[C@H]1O[C@@H](n2ccc3ccccc32)[C@H](OC(=O)/C=C/c2cnc[nH]2)[C@@H](OP(=O)(O)O)[C@@H]1O [iglu#45] | 0.001089
C/C=C(\C)C(=O)O[C@H]1[C@H](Oc2ccc(CCN)cc2)O[C@H](COC(=O)c2ccccc2N)[C@@H](O)[C@@H]1OP(=O)(O)O [tyglu#8] | 0.0001168
NCCc1ccc(O[C@@H]2O[C@H](COC(=O)c3ccccc3N)[C@@H](O)[C@H](OP(=O)(O)O)[C@H]2OC(=O)Cc2ccccc2)cc1 [tyglu#12] | 0.008818
Nc1ccccc1C(=O)OC[C@H]1O[C@@H](NCCc2ccc(O)cc2)[C@H](OC(=O)c2ccccc2N)[C@@H](OP(=O)(O)O)[C@@H]1O [tyglu#4] | 0.0004062
C/C=C(\C)C(=O)OC1C(OP(=O)(O)O)C(O)C(COC(=O)c2ccccc2)OC1n1ccc2ccccc21 (centres unmarked) [iglu#28] | 0.00009358
C/C=C(\C)C(=O)OC[C@H]1O[C@@H](Oc2ccc(CCN)cc2)[C@H](OC(=O)c2ccc[nH]2)[C@@H](OP(=O)(O)O)[C@@H]1O [tyglu#19] | 0.0003518
CC(C)CC(=O)OC1C(OC(=O)c2ccccc2N)OC(CO)C(O)C1OP(=O)(O)O (centres unmarked) [angl#46] | 0.01675
CC(C)CC(=O)OC1C(Oc2ccc(CCN)cc2)OC(CO)C(O)C1OP(=O)(O)O (centres unmarked) [tyglu#9] | 0.003042
CC(C)CC(=O)OC[C@H]1O[C@@H](n2ccc3ccccc32)[C@H](OC(=O)c2ccccc2)[C@@H](OP(=O)(O)O)[C@@H]1O [iglu#32] | 0.001437
NCCc1ccc(O[C@@H]2O[C@H](COC(=O)c3ccccc3)[C@@H](O)[C@H](OP(=O)(O)O)[C@H]2OC(=O)c2ccccc2)cc1 [tyglu#32] | 0.007546

Same assay, conditions: relative to wildtype C. elegans

SMILES | production in the Cel-cest-1.2 mutant (in words)
Nc1ccccc1C(=O)O[C@H]1O[C@H](CO)[C@@H](O)[C@H](OP(=O)(O)O)[C@H]1O [angl #2] | not abolished
